Measured values: article PMC1940015
No constants are given. Whether binding was seen depends on the method and setting. Binding seen in cells or lysates may run through a third protein. Binding can be weak; no strength is given.

Protein sequences, listed by entry. Tags and fused reporters are not part of them. Lines headed by an entry give the natural chain unless they say otherwise; changes in a name come on top.
UniProt P49024: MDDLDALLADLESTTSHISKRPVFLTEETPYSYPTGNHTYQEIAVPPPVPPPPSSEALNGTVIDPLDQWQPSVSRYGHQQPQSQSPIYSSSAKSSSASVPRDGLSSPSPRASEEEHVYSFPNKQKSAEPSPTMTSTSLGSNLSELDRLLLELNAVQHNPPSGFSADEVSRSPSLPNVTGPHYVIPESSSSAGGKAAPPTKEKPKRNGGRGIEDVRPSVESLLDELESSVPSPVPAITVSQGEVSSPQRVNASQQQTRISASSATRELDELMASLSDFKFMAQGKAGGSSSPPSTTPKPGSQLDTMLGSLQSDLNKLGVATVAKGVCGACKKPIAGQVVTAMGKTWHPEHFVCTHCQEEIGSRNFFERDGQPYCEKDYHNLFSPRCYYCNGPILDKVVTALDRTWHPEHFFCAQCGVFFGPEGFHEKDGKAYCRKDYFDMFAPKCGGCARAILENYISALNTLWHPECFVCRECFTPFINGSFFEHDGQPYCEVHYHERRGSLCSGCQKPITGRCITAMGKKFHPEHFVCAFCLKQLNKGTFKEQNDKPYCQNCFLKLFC

Target: T1, wild-type human α4 integrin, full length (human) (UniProt P13612)
T1 sequence (chain, biotin (cell surface molecules labelled with NHS-LC-Biotin)): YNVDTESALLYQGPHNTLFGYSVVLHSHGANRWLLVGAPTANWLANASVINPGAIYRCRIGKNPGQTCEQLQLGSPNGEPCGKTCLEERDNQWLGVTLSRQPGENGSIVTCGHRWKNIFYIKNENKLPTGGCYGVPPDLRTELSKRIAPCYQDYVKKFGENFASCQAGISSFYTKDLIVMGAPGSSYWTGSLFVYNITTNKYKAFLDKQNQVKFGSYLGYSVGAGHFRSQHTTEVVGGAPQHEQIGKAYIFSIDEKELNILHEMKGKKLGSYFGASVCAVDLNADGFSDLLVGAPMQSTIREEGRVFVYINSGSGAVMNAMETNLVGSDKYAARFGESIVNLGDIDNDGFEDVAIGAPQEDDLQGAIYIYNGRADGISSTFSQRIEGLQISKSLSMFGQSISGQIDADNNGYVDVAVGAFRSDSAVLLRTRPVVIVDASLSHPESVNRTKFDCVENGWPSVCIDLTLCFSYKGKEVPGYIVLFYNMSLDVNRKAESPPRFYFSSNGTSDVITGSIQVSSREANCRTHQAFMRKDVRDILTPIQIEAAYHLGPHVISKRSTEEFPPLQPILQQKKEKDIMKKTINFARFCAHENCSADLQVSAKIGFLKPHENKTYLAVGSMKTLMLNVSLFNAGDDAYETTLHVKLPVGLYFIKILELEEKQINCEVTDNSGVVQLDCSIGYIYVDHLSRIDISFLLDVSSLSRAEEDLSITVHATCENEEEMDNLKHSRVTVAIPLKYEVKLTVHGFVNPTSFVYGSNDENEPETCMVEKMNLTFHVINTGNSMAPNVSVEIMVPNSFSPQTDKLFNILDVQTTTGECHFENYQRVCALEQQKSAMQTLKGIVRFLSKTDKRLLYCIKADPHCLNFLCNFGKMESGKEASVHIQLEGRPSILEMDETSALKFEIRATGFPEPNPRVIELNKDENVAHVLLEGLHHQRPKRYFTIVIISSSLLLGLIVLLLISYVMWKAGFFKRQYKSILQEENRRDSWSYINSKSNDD
Assay: co-IP; lysates of biotin-labelled PC12 cells co-expressing wild-type α4 and FLAG-paxillin constructs; immunoprecipitated with anti-α4, re-immunoprecipitated with anti-FLAG, western blot with anti-paxillin antibody

“FLAG-tagged chicken paxillin lacking the LD4 domain (from UniProt P49024)” was tested, and the binding was “binds”.
